For this assay, the target named is T1, DJ-1 (endogenous, mouse brain) (mouse (endogenous in mouse brain)) (UniProt Q99LX0).
T1 sequence: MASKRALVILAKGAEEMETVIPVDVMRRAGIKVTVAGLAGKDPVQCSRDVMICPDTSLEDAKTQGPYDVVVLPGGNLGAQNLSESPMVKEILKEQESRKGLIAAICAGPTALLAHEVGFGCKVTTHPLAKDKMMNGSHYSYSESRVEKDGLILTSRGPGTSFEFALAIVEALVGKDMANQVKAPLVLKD
The assay can be described thus: co-IP; wild type or DJ-1 KO mouse brain lysates immunoprecipitated with DJ-1 antibody; endogenous MAP1b-LC detected by blot.

For one substance, binding results are on record in article PMC3120713.

Results are given in words; binding and its absence hold for the method and conditions named. Binding seen in cells or lysates may run through a third protein. A result given as binding can be weak or reduced; the word gives no strength.

For the substance MAP1b-LC (endogenous, mouse brain), the binding entry is given as “binds”.
